Test results as given in patent US10227357B2, “Compounds and methods for kinase modulation, and indications therefor” (Plexxikon Inc., priority 2012, dated 2019).
Some entries share one result that the patent states for a list of compounds.

Sequences of proteins named here, by UniProt entry; tags and fusion partners are left off.
UniProt P10721, whole entry D816V: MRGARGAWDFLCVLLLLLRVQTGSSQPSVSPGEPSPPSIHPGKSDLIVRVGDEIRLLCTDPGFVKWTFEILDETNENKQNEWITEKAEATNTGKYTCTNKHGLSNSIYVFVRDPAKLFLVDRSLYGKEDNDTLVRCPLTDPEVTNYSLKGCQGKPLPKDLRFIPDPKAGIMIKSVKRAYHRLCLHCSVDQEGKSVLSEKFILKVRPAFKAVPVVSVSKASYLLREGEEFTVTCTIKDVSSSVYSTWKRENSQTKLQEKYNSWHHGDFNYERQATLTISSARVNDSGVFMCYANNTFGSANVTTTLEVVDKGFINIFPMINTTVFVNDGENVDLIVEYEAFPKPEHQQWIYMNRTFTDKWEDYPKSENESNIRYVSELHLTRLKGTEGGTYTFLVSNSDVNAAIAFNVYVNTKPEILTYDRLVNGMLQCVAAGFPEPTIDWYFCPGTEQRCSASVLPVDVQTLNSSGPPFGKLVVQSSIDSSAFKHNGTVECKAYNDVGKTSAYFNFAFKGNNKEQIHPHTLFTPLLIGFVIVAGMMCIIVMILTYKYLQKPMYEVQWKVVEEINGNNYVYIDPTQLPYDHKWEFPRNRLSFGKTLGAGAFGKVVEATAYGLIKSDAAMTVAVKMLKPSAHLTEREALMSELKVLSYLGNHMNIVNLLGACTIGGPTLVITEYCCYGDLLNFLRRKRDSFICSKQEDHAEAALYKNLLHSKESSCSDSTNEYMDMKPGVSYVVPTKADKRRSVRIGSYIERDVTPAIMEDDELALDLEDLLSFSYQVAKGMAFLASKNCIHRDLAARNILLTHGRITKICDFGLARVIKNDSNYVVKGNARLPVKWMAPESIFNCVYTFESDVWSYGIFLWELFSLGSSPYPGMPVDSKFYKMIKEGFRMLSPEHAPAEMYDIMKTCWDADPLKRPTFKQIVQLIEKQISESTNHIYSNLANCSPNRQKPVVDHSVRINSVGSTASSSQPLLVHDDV

These molecules were tested against BaF3-FL KIT D816V cells (Homo sapiens, UniProt P10721, D816V, cells depend on it, form not given) (assay: Cell-based assay of c-Kit mutant kinase activity, BaF3-FL KIT D816V cell proliferation (ATPlite)). Settings: in at least one of the c-kit cell assays described in Example 28 (BaF3-FL KIT D816V or BaF3-FL KIT V560G/D816V); read-out: IC50 (the source's name).

Question: `Cc1nn(C)cc1-c1cc2ncnc(N3CC4CCC3CN4C(=O)N[C@H](C)c3ccc(F)cc3)c2s1` (stereo partly drawn) [P-0704, 5-[6-(1,3-dimethylpyrazol-4-yl)thieno[3,2-d]pyrimidin-4-yl]-N-[(1R)-1-(4-fluorophenyl)ethyl]-2,5-diazabicyclo[2.2.2]octane-2-carboxamide] was tested. Which GI50 did it give?
Answer: The GI50 was less than 10 µM.

Question: Which GI50 does the source give for `O=C(NCc1cccs1)N1CCN(c2ncnc3cc(-c4ccc(F)cc4)sc23)CC1` [P-0709, 4-[6-(4-fluorophenyl)thieno[3,2-d]pyrimidin-4-yl]-N-(2-thienylmethyl)piperazine-1-carboxamide] here?
Answer: The GI50 was less than 10 µM.

Question: Which GI50 does the source give for `COc1cc(-c2cc3c(N4CCN(C(=O)N[C@@H](C)c5ccc(Cl)cc5)C(C)(C)C4)ncnc3[nH]2)ccn1` [P-0710, N-[(1S)-1-(4-chlorophenyl)ethyl]-4-[6-(2-methoxy-4-pyridyl)-7H-pyrrolo[2,3-d]pyrimidin-4-yl]-2,2-dimethyl-piperazine-1-carboxamide] here?
Answer: Its GI50 is less than 10 µM.

Question: How did the GI50 turn out when `COc1cc(-c2cc3c(N4CCN(C(=O)N[C@@H](C)c5cccc(Cl)c5)[C@H](C)C4)ncnc3[nH]2)ccn1` [P-0711, (2R)-N-[(1S)-1-(3-chlorophenyl)ethyl]-4-[6-(2-methoxy-4-pyridyl)-7H-pyrrolo[2,3-d]pyrimidin-4-yl]-2-methyl-piperazine-1-carboxamide] was run?
Answer: The GI50 was less than 10 µM.

Question: Which GI50 does the source give for `Cc1ccc([C@H](C)NC(=O)N2CCN(c3ncnc4[nH]c(-c5ccc(F)cc5)cc34)C[C@H]2C)cc1` [P-0712, (2R)-4-[6-(4-fluorophenyl)-7H-pyrrolo[2,3-d]pyrimidin-4-yl]-2-methyl-N-[(1S)-1-(p-tolyl)ethyl]piperazine-1-carboxamide] here?
Answer: The GI50 was less than 10 µM.

Question: For `Cc1ccc([C@H](C)NC(=O)N2CCN(c3ncnc4[nH]c(-c5ccc(F)cc5)cc34)CC2)cc1` [P-0713, 4-[6-(4-fluorophenyl)-7H-pyrrolo[2,3-d]pyrimidin-4-yl]-N-[(1S)-1-(p-tolyl)ethyl]piperazine-1-carboxamide], which GI50 is on record?
Answer: Its GI50 is less than 10 µM.

Question: Which GI50 does the source give for `CCOc1cccc(-c2[nH]c(C3CCN(c4ncnc5[nH]c(-c6ccnc(OC)c6)cc45)CC3)nc2C)c1` [P-0714, 4-[4-[5-(3-ethoxyphenyl)-4-methyl-1H-imidazol-2-yl]-1-piperidyl]-6-(2-methoxy-4-pyridyl)-7H-pyrrolo[2,3-d]pyrimidine] here?
Answer: The GI50 was less than 10 µM.

Question: `Cc1nn(C)cc1-c1cc2c(N3CCN(C(=O)N[C@@H](C)c4ccc(Cl)cc4)CC3)ncnc2[nH]1` [P-0716, N-[(1S)-1-(4-chlorophenyl)ethyl]-4-[6-(1,3-dimethylpyrazol-4-yl)-7H-pyrrolo[2,3-d]pyrimidin-4-yl]piperazine-1-carboxamide] was tested. Which GI50 did it give?
Answer: The GI50 was less than 10 µM.

Question: For `C[C@H](NC(=O)N1CCN(c2ncnc3[nH]c(-c4cnn(C)c4)cc23)C[C@H]1C)c1ccc(Cl)cc1` [P-0717, (2R)-N-[(1S)-1-(4-chlorophenyl)ethyl]-2-methyl-4-[6-(1-methylpyrazol-4-yl)-7H-pyrrolo[2,3-d]pyrimidin-4-yl]piperazine-1-carboxamide], which GI50 is on record?
Answer: Its GI50 is less than 10 µM.

Question: `Cc1nn(C)cc1-c1cc2c(N3CCN(C(=O)N[C@@H](C)c4ccc(Cl)cc4)[C@H](C)C3)ncnc2[nH]1` [P-0718, (2R)-N-[(1S)-1-(4-chlorophenyl)ethyl]-4-[6-(1,3-dimethylpyrazol-4-yl)-7H-pyrrolo[2,3-d]pyrimidin-4-yl]-2-methyl-piperazine-1-carboxamide] was tested. Which GI50 did it give?
Answer: The GI50 was less than 10 µM.

Question: Which GI50 does the source give for `C[C@H](NC(=O)N1CCN(c2ncnc3[nH]c(-c4cnn(C)c4)cc23)CC1(C)C)c1ccc(F)cc1` [P-0720, N-[(1S)-1-(4-fluorophenyl)ethyl]-2,2-dimethyl-4-[6-(1-methylpyrazol-4-yl)-7H-pyrrolo[2,3-d]pyrimidin-4-yl]piperazine-1-carboxamide] here?
Answer: The GI50 was less than 10 µM.

Question: With `Cc1nn(C)cc1-c1cc2c(N3CCN(C(=O)N[C@@H](C)c4ccc(F)cc4)C(C)(C)C3)ncnc2[nH]1` [P-0721, 4-[6-(1,3-dimethylpyrazol-4-yl)-7H-pyrrolo[2,3-d]pyrimidin-4-yl]-N-[(1S)-1-(4-fluorophenyl)ethyl]-2,2-dimethyl-piperazine-1-carboxamide] as the molecule, how does the GI50 read?
Answer: Its GI50 is less than 10 µM.

Question: For `C[C@H](NC(=O)N1CCN(c2ncnc3[nH]c(-c4cnn(C)c4)cc23)CC1(C)C)c1ccc(Cl)cc1` [P-0722, N-[(1S)-1-(4-chlorophenyl)ethyl]-2,2-dimethyl-4-[6-(1-methylpyrazol-4-yl)-7H-pyrrolo[2,3-d]pyrimidin-4-yl]piperazine-1-carboxamide], which GI50 is on record?
Answer: Its GI50 is less than 10 µM.

Question: Which GI50 does the source give for `Cc1nn(C)cc1-c1cc2c(N3CCN(C(=O)N[C@@H](C)c4ccc(Cl)cc4)C(C)(C)C3)ncnc2[nH]1` [P-0723, N-[(1S)-1-(4-chlorophenyl)ethyl]-4-[6-(1,3-dimethylpyrazol-4-yl)-7H-pyrrolo[2,3-d]pyrimidin-4-yl]-2,2-dimethyl-piperazine-1-carboxamide] here?
Answer: The GI50 was less than 10 µM.

Question: How did the GI50 turn out when `Cc1nn(C)cc1-c1cc2c(N3CCN(C(=O)N[C@@H](C)c4ccc(F)cc4)CC3)ncnc2[nH]1` [P-0724, 4-[6-(1,3-dimethylpyrazol-4-yl)-7H-pyrrolo[2,3-d]pyrimidin-4-yl]-N-[(1S)-1-(4-fluorophenyl)ethyl]piperazine-1-carboxamide] was run?
Answer: Its GI50 is less than 10 µM.

Question: For `C[C@H](NC(=O)N1CCN(c2ncnc3[nH]c(-c4cnn(C)c4)cc23)C[C@H]1C)c1ccc(F)cc1` [P-0725, (2R)-N-[(1S)-1-(4-fluorophenyl)ethyl]-2-methyl-4-[6-(1-methylpyrazol-4-yl)-7H-pyrrolo[2,3-d]pyrimidin-4-yl]piperazine-1-carboxamide], which GI50 is on record?
Answer: The GI50 was less than 10 µM.

Question: Which GI50 does the source give for `CCc1ccc(S(=O)(=O)NC2CCN(c3ncnc4[nH]c(-c5cn(C)nc5C)cc34)CC2)cc1` [P-0726, N-[1-[6-(1,3-dimethylpyrazol-4-yl)-7H-pyrrolo[2,3-d]pyrimidin-4-yl]-4-piperidyl]-4-ethyl-benzenesulfonamide] here?
Answer: Its GI50 is less than 10 µM.

Question: `CCc1ccc(S(=O)(=O)NC2CCN(c3ncnc4[nH]c(-c5ccnc(OC)c5)cc34)CC2)cc1` [P-0727, 4-ethyl-N-[1-[6-(2-methoxy-4-pyridyl)-7H-pyrrolo[2,3-d]pyrimidin-4-yl]-4-piperidyl]benzenesulfonamide] was tested. Which GI50 did it give?
Answer: Its GI50 is less than 10 µM.

Question: `Cc1cc2c(N3CCC(NS(=O)(=O)c4ccc(Cl)cc4)CC3)ncnc2[nH]1` [P-0728, 4-chloro-N-[1-(6-methyl-7H-pyrrolo[2,3-d]pyrimidin-4-yl)-4-piperidyl]benzenesulfonamide] was tested. Which GI50 did it give?
Answer: Its GI50 is less than 10 µM.

Question: `Cc1cc2c(C3=CCC(NS(=O)(=O)c4ccc(Cl)cc4)CC3)ncnc2[nH]1` (stereo not shown) [P-0729, 4-chloro-N-[4-(6-methyl-7H-pyrrolo[2,3-d]pyrimidin-4-yl)cyclohex-3-en-1-yl]benzenesulfonamide] was tested. Which GI50 did it give?
Answer: The GI50 was less than 10 µM.

Question: Which GI50 does the source give for `CCc1ccc(S(=O)(=O)NC2CCN(c3ncnc4[nH]c(C)cc34)CC2)s1` [P-0730, 5-ethyl-N-[1-(6-methyl-7H-pyrrolo[2,3-d]pyrimidin-4-yl)-4-piperidyl]thiophene-2-sulfonamide] here?
Answer: Its GI50 is less than 10 µM.

Question: With `CC1(C)CN(c2ncnc3[nH]c(-c4ccc(C#N)cc4)cc23)CCN1` [P-0731, 4-[4-(3,3-dimethylpiperazin-1-yl)-7H-pyrrolo[2,3-d]pyrimidin-6-yl]benzonitrile] as the molecule, how does the GI50 read?
Answer: The GI50 was less than 10 µM.
